# These are yes or no findings as the source states them, for the method shown. Some results given as binding are weak or reduced against the parent protein; the word gives no strength.
# How the values were obtained:
# [1] = biological target: C-terminal coiled-coil (CC) domain of Spef1 (mouse) (UniProt Q99JL1); assay: crystal structure
# [2] = biological target: Spef1 V205A/L208A mutant (full-length) (mouse) (UniProt Q99JL1); assay: SEC-MALS
# [3] = biological target: Spef1 L208A/L212A mutant (full-length) (mouse) (UniProt Q99JL1); assay: SEC-MALS
binder,measurement,setting,value
"C-terminal coiled-coil (CC) domain of Spef1 (domain or fragment, UniProt Q99JL1 170-234) YNQALQGDPSFVLQIAEKEQELLASQETVQVLQMKVKRLEHLLQLKNVRIDDLSRRLQQAERKQR",binding,[1],binds
"Spef1 V205A/L208A mutant (full-length) (protein, UniProt Q99JL1 1-234) MESSVDEEALHQLYLWVDNIPLSRPKRNLSRDFSDGVLVAELIKFYFPKMVEMHNYVPANSLQQKLSNWGHLNRKVLNKLNFSVPDDVMRKIAQCSPGVVELVLIPLRQRLEERQRRQKLGVGSLQELAPQDSSGYMDMGLPQKVRGEGAPALGEQLREGRPLASRPPGYNQALQGDPSFVLQIAEKEQELLASQETVQVLQMKAKRAEHLLQLKNVRIDDLSRRLQQAERKQR",binding,[2],no binding (tested: ~1 mg/ml)
"Spef1 L208A/L212A mutant (full-length) (protein, UniProt Q99JL1 1-234) MESSVDEEALHQLYLWVDNIPLSRPKRNLSRDFSDGVLVAELIKFYFPKMVEMHNYVPANSLQQKLSNWGHLNRKVLNKLNFSVPDDVMRKIAQCSPGVVELVLIPLRQRLEERQRRQKLGVGSLQELAPQDSSGYMDMGLPQKVRGEGAPALGEQLREGRPLASRPPGYNQALQGDPSFVLQIAEKEQELLASQETVQVLQMKVKRAEHLAQLKNVRIDDLSRRLQQAERKQR",binding,[3],no binding (tested: ~1 mg/ml)
